# From ChEMBL document CHEMBL3045722, “Synthesis, calcium-channel blocking activity, and conformational analysis of some novel 1,4-dihydropyridines: application of PM3 and DFT computational methods” (Med Chem Res, 2012)
# Sequences of proteins named here, by UniProt entry; tags and fusion partners are left off.
# UniProt O35505, whole entry: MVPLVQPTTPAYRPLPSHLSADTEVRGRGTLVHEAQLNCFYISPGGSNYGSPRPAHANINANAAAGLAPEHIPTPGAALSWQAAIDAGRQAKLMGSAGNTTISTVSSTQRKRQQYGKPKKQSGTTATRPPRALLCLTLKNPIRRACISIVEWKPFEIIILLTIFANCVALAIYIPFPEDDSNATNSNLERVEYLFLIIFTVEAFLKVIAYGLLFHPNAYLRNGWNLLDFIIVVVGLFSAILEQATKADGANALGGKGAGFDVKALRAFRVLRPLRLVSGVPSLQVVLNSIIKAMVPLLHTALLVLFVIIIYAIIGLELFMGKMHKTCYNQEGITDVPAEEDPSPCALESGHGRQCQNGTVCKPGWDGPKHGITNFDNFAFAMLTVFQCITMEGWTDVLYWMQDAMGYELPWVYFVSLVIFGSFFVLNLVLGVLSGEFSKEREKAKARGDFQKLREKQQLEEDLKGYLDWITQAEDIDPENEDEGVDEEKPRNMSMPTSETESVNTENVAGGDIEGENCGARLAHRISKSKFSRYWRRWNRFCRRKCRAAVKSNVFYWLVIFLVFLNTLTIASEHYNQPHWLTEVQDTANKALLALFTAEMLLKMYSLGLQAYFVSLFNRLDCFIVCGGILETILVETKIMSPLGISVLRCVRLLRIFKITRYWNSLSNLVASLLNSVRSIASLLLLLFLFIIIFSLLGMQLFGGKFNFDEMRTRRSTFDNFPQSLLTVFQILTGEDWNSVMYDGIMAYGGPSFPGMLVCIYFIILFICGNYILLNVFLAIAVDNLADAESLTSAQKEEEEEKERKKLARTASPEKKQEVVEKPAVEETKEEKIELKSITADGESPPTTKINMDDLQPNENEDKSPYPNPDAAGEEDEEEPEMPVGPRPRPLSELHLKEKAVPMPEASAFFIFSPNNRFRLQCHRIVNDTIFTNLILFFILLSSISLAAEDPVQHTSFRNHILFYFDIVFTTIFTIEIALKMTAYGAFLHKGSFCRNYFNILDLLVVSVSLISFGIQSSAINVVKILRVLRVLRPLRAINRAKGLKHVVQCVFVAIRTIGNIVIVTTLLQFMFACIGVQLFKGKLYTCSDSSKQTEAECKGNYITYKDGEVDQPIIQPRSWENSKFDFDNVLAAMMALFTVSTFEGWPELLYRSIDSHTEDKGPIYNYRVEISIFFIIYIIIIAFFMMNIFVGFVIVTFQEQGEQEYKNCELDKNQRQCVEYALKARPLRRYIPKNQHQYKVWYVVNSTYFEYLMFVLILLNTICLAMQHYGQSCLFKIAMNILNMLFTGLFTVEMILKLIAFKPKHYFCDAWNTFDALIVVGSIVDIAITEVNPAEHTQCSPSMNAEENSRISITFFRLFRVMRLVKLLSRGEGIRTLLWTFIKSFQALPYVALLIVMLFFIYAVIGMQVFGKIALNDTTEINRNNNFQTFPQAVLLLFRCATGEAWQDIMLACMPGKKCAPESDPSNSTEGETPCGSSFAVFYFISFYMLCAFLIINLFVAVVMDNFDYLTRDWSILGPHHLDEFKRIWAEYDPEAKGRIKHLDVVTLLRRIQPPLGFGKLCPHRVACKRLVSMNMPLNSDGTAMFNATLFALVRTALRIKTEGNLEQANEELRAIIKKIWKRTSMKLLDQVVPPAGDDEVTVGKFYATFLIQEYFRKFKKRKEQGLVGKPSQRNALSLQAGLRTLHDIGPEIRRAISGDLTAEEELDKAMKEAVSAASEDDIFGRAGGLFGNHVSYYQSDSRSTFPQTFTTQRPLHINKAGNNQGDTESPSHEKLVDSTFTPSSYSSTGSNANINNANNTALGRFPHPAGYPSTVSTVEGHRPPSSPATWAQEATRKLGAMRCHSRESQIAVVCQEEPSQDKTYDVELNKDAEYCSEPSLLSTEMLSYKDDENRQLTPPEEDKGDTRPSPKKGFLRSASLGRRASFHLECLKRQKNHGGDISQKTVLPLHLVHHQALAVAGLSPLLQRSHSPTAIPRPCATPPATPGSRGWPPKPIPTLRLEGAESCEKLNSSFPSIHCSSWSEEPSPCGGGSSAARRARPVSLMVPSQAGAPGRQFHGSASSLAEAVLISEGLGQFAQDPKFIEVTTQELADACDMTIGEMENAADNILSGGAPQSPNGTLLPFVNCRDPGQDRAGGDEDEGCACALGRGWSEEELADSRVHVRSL
# Molecular target: Voltage-dependent L-type calcium channel subunit alpha-1C (Cavia porcellus, UniProt O35505)
# Experiment: Antagonist activity at Cavia porcellus albino (guinea pig) calcium channel assessed as inhibition of KCl-induced ileal longitudinal smooth muscle contraction
structure (smiles),measurement,value
COC(=O)C1=C(C)NC(C)=C(C(=O)OC)C1c1ccccc1[N+](=O)[O-] [NIFEDIPINE],IC50,2.6 nM
